Experimental data from patent publication US12662672B2, “Method of promoting survival and/or function of a motor neuron and related agents, uses and methods” (Agency for Science, Technology and Research, priority 2019, dated 2026).

Experiments:
ALS MNs [1] = assay: Metabolic flux analysis, MitoStress assay (OCR) in ALS MNs; type: cell-based, human; settings: day 31, C12 5 μM, Riluzole 5 μM, Edaravone 100 μM
Experimental: After dissociating with Accutase, cells were blocked with solution containing phosphate-buffered saline, 0.5% bovine serum albumin (BSA) and 2 mM EDTA. The cells were then incubated with CD171-APC antibody (Miltenyi Biotec) and PSA-NCAM-APC antibody (Miltenyi Biotec) for 10 mins at 4° C. After washing, the cells were then incubated with anti-APC microbeads for 15 minutes at 4° C. The cells were then washed twice and filtered prior to loading into the separation column (LS column) that was attached to a magnetic stand (all from Miltenyi Biotec). After three rounds of washing, the column was removed from the magnetic stand and labelled cells were eluted in culture media for replating.
Motor neuron cultures at day 27 were dissociated with Accutase and seeded at 2 million cells per well in a 6-well plate. At day 28, non-targeting siRNA or siRNAs were individually complexed with Lipofectamine RNAiMAX following manufacturer's instructions and added to the motor neuron cultures. For each well, 10 pmol of siRNAs and 8 μl of Lipofectamine RNAiMAX were used. Cells were either harvested for RNA and protein analyses, fixed for immunostaining or metabolic flux analysis were performed 3 days after siRNA transfection.

ALS MNs [2] = assay: Neuronal morphology (soma size, primary neurites) in ALS MNs; type: cell-based, human
Experimental: Cells were fixed in 4% paraformaldehyde for 15 minutes, permeabilized in 0.1% Triton X-100 for 15 minutes and blocked in buffer containing 5% FBS and 1% BSA for an hour at room temperature. Primary antibodies (Table S4) were diluted in blocking buffer and incubated overnight at 4° C. Cells were washed thrice in PBS. The respective secondary antibodies were diluted 1:1500 in blocking buffer and incubated at room temperature, in the dark, for 90 minutes. DAPI was used at 0.1 μg/ml to visualize cellular nuclei.
Images were acquired using the high content microscope Phenix (Perkin Elmer) using the 20× air objective. Image analyses including cell counts and intensity measurements were performed using Columbus (Perkin Elmer).
For primary neurites analysis, neuronal projections from the soma size was determined based on SMI-32 staining. For soma size analysis, cellular nuclei were identified by DAPI, and the cytoplasmic area surrounding the nucleus was determined based on SMI-32 staining. Soma size area was measured by image analysis software (ImageJ, NIH) based on the cytoplasmic area surrounding the nucleus, excluding neuronal projections.

`Nc1nc2ccc(OC(F)(F)F)cc2s1` [Riluzole] was tested, and the “mitochondrial respiration / metabolic profile” value (ALS MNs [1]) was “did not show any significant changes”, the “number of primary neurites” value (ALS MNs [2]; day 31) was “no significant change” and the soma size (ALS MNs [2]; day 31) was “no significant change”. For the same compound, the neuronal morphologies (ALS MNs [2]; day 31, NAM 0.5 mM, C12 5 μM, Riluzole 5 μM, Edaravone 100 μM, siRNA) was “did not improve neuronal morphologies”.
